## Results of single-concentration screens

The chains behind the UniProt entries cited, without tags or fusion partners. Residues count along the entry.
UniProt A4I591, 1-473: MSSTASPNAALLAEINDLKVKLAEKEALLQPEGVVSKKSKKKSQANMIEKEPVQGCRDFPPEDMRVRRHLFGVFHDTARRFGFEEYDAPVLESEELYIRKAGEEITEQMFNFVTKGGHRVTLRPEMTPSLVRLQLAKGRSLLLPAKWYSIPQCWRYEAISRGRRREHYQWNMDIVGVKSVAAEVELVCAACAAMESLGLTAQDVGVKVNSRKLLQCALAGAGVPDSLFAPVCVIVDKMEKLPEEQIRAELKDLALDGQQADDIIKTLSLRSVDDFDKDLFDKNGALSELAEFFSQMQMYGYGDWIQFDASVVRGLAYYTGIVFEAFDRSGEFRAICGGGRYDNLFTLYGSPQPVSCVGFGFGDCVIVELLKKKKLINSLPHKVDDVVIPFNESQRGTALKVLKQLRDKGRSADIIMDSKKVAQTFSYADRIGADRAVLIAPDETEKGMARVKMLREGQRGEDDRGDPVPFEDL
UniProt P9WFT3, whole entry: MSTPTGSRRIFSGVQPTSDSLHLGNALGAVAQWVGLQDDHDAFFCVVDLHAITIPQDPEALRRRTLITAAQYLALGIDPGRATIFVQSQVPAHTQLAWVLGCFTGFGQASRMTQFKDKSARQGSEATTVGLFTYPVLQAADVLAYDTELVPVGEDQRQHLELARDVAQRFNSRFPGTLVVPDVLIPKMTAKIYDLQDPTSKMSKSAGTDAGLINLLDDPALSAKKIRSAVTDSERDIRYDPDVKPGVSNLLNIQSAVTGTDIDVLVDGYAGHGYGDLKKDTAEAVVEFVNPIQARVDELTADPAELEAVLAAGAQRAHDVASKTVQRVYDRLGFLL
UniProt P9WNZ1, whole entry: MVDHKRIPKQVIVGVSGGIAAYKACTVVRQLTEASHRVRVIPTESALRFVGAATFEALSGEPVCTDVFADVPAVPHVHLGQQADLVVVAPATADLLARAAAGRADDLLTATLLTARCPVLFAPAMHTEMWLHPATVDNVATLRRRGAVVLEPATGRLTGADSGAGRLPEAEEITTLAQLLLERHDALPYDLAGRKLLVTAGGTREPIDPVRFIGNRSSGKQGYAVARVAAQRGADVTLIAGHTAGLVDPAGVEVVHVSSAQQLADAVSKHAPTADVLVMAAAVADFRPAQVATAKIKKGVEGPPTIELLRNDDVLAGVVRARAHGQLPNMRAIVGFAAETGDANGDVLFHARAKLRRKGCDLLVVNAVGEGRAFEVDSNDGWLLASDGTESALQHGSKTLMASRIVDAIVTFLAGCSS

LiHisRS: 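Enzyme assay of histidyl-tRNA synthetase; the read-out is not stated. Target: Histidine-tRNA ligase, Leishmania infantum (UniProt A4I591). Compounds at 30 µM. Higher reads as stronger inhibition (inferred: compounds with an IC50 in retests scored well above the rest). The assay is labelled LdHisRS but filed under L. infantum. About 69,000 compounds were tested under these conditions; 0.6% (about 410) showed 50% or more at least once.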
MtTrpRS: 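Enzyme assay of tryptophanyl-tRNA synthetase; the read-out is not stated. Target: Tryptophan-tRNA ligase, Mycobacterium tuberculosis (UniProt P9WFT3). Concentration: 10 µM. Direction is not recorded; retested compounds ran higher, which suggests that high means inhibition. Of about 65,000 compounds tested this way, about 64 (0.098%) reached 50% or more in at least one test.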
Toxoplasma: 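Assay of Toxoplasma gondii numbers, read through their beta-galactosidase reporter with a colour substrate. Tested at 10 µM. The record gives no direction; the compounds picked for IC50 retests had high values, so higher reads as fewer parasites. About 67,000 compounds were tested under these conditions; 0.38% (about 260) showed 50% or more at least once.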
CoaBC: 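Enzyme assay of CoaBC with a phosphate dye (Biomol Green) read at 650 nm. Target: Coenzyme A biosynthesis protein CoaBC, Mycobacterium tuberculosis (UniProt P9WNZ1). Tested at 30 µM. Direction is inferred from only a few compounds that gave an IC50; most scored high, so higher reads as stronger inhibition. Most strong results did not repeat in a second test. About 67,000 compounds were tested under these conditions; 0.06% (about 40) showed 50% or more at least once.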

Each number is a percent effect as filed. The record does not define 0% and 100%; most values in the screen are far below 50% and negative numbers occur (in some assays of this library far below -100). Compounds were drawn at random from those tested, without regard to their results. Two or more numbers in one place are separate tests of the same structure; such repeats can differ widely. A dash means the value is not listed here; it may have been measured.

| # | structure | LiHisRS | MtTrpRS | Toxoplasma | CoaBC |
|---|---|---|---|---|---|
| 1 | `O=C(CCc1nc(Cl)n[nH]1)N1CCC2(CCCN(CC3CCC3)C2=O)C1` (centres unmarked) | 11.11 | 0.000006 | -5.241 | -0.2451 |
| 2 | `c1ccc(-n2nnnc2CN2CCCC(Cn3cncn3)C2)cc1` (centres unmarked) | 8.108 | 0.4873 | -7.255 | 4.439 |
| 3 | `CCCNc1ncc(CN2CCOC(Cc3cccc(F)c3)C2)cn1` (centres unmarked) | 14.16 | 0.4082 | -1.908 | -0.8805 |
| 4 | `O=C(Cn1c(=O)oc2ccccc21)NCC1(O)CCc2ccccc2C1` (centres unmarked) | 5.195 | 1.978 | 18.78 | 1.277 |
| 5 | `CCn1nc(CC(C)C)cc1C(=O)N1C[C@H](O)[C@@H](N2CCCCC2)C1` | 22.33 | 3.908 | 0.6608 | -4.464 |
| 6 | `Cc1ccc(C(=O)N2CCO[C@H]3[C@H](OCC4CCOCC4)CC[C@@H]32)o1` | 11.5 | -5.276 | - | 5.732 |
| 7 | `CC(C)NS(=O)(=O)c1cc(C(=O)O)cc(-c2ccccc2C#N)c1` | 0 | 15.22 | 9.217 | -6.009 |
| 8 | `CCC1CCCCN1C(=O)c1ccc2[nH]nnc2c1` (centres unmarked) | 17.31 | -1.126 | 3.856 | 3.106 |
| 9 | `O=C(Cc1ccccn1)N1CCc2c(O)nc(-c3cnccn3)nc2C1` | 15.62 | - | -0.5108 | 4.167 |
| 10 | `CC(C)c1nn(C)c(N(C)C)c1CNCc1cccc(CN(C)C)c1` | -1.515 | 1.267 | - | -6.845 |
| 11 | `Cc1nc(O)c2nnn(C[C@H]3CCCN3C(=O)c3ccccc3F)c2n1` | 7.292 | - | 7.224 | 1.471 |
| 12 | `O=C(O)C(F)(F)F.[H][C@@]12CCN(CCc3ccccc3)C[C@@]1([H])O[C@@H](C(=O)NCC1CC1)C2` | - | - | -0.4554 | - |
| 13 | `NC[C@H]1CC[C@H](C(NC(=O)CC2CCCC2)c2ccccn2)CC1` (some centres unmarked) | 18.84 | - | -6.751 | 0.7282 |
| 14 | `Cc1nn(CC(=O)N2CCN(c3ncccn3)CC2)c(C)c1Cl` | 15.09 | 2.143 | -3.704 | 20.84 & 9.524 |
| 15 | `Cc1ccn(CCNc2ncnc3c2CCN(c2cnccn2)CC3)n1` | 16.39 | -3.465 | 24.03 | -0.5115 |
| 16 | `O=S(=O)(CCc1ccccc1Cl)CC(O)CO` (centres unmarked) | 5.618 | -1.052 | -35.39 | -20.05 |
| 17 | `O=C(c1cnccn1)N1C[C@@H]2OCC(=O)N(CC3CCCCC3)[C@@H]2C1` | 25 | -3.439 | - | 3.226 |
| 18 | `N#Cc1cccc(CN2CC[C@@H]3CO[C@@H](CN4CCCC4)[C@@H]3C2)c1` | 22 | -3.294 | - | -7.172 |
| 19 | `Cc1ccc(CN2C[C@@H](N(C)C)[C@H]3OCCC[C@H]32)o1` | 1.709 | 2.229 | - | - |
| 20 | `CC(C)(C)OC(=O)N1CCC[C@H](NCC2=CCCOC2)C1` | 5 | -1.868 | -3.786 | 2.195 |
| 21 | `CC(O)(CNC(=O)NCCc1ccc2c(c1)CCO2)c1ccsc1` (centres unmarked) | 7.965 | -1.774 | 10.55 | 0.2336 |
| 22 | `O=C(NCC1CCCO1)c1cc(-c2ccncc2)c2cnccc2n1` (centres unmarked) | -27.14 | 5.285 | - | 4.369 |
| 23 | `CCCC(=O)n1ccn(S(=O)(=O)c2ccc(C)cc2)c1=O` | 23.68 | 0.6135 | -19.43 | 1.266 |
| 24 | `CN(C)C(=O)CN1CCN(c2ncccn2)[C@@H]2CS(=O)(=O)C[C@@H]21` | 16.44 | -8.327 | - | 15.45 |
| 25 | `CC1CCN(CCNC(=O)c2ccn(-c3ccc(F)cc3)n2)CC1` | 11.4 | -0.7062 | -18.76 | 7.732 & 26.19 |
| 26 | `COCCCN(Cc1ccccn1)S(=O)(=O)N(C)C` | 5.618 | 3.317 | 11.27 | 25.78 & 8.763 |
| 27 | `COc1cccc([C@H]2CN(C(=O)c3scc4c3CCCC4)C[C@@H]2N)c1` | 19.17 | 0.5789 | -30.88 | 4.596 |
| 28 | `COc1ncccc1C(=O)Nc1ccccc1-c1ccc(=O)n(C)n1` | 5.217 | -2.812 | 4.505 | -2.748 |
| 29 | `CN(Cc1ccsc1)C(=O)c1cccc(F)c1` | 10.96 | 2.158 | 2.329 | 3.133 |
| 30 | `CN(C(=O)c1ccc(S(=O)(=O)NC(C)(C)C)cc1)C1(C#N)CCC1` | 21.95 | -0.5939 | -4.097 | 4.962 |
| 31 | `COc1cc(Cl)c(NC(=O)c2cc3c([nH]c2=O)CCCC3=O)cc1OC` | 43.37 | -8.157 | -12.32 | 3.883 |
| 32 | `CCN1CCN(CCNC(=O)c2sc(C(C)C)nc2C)CC1` | 8.547 | 4.6 | 14.39 | -6.702 |
| 33 | `CCc1ccccc1C(=O)N1CCN(S(C)(=O)=O)[C@@H](C)C1` | 3.846 | 0.2138 | -0.3284 | 4.051 |
| 34 | `COc1cc(N2CC[C@@H]3O[C@@H](C(=O)NCCN(C)C)C[C@@H]32)ncn1` | 4.167 | -5.94 | - | -10.73 |

2 of the entries, repeated:

* CC(C)(C)OC(=O)N1CCC[C@H](NCC2=CCCOC2)C1 : LiHisRS: 5%; MtTrpRS: -1.868%; Toxoplasma: -3.786%; CoaBC: 2.195%
* CC(C)c1nn(C)c(N(C)C)c1CNCc1cccc(CN(C)C)c1 : LiHisRS: -1.515%; MtTrpRS: 1.267%; CoaBC: -6.845%

From ChEMBL document CHEMBL3988442, “University of Dundee, Small-Polar-MMV Screening Library” (2021).